According to the supplement of paper PMC12823440, “Inhibitors supercharge kinase turnover through native proteolytic circuits” (Nature, 2025):
Counter-ions that a name gives are not always drawn. This is one part of the list. The calls rarely recur for the same compound in another form.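 In K562 cells expressing nanoluciferase-fused kinases, luminescence was recorded at 4 h intervals between 2 and 18 h, normalized as percent of control with DMSO at 100% and a positive control at 0%. A significant (2 sigma) signal drop marks a time point as decreased. The authors' rule for a hit is not shown and takes in more than the number of time points.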

Amino acid sequences for entries named in this document (tags omitted). A change or cut given only in a name is not applied to a line headed by its entry.
UniProt Q15208: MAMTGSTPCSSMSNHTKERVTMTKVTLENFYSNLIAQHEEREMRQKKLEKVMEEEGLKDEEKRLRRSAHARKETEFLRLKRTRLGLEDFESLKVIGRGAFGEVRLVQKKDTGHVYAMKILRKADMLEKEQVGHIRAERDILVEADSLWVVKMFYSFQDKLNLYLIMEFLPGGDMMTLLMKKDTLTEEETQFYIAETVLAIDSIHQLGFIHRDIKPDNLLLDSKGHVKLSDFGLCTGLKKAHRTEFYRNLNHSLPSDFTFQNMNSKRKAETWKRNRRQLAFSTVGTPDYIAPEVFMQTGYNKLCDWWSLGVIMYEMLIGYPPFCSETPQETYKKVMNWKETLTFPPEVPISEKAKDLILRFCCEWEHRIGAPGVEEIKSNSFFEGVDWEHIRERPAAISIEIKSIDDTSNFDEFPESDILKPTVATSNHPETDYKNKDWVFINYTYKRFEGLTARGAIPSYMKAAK
UniProt P42680: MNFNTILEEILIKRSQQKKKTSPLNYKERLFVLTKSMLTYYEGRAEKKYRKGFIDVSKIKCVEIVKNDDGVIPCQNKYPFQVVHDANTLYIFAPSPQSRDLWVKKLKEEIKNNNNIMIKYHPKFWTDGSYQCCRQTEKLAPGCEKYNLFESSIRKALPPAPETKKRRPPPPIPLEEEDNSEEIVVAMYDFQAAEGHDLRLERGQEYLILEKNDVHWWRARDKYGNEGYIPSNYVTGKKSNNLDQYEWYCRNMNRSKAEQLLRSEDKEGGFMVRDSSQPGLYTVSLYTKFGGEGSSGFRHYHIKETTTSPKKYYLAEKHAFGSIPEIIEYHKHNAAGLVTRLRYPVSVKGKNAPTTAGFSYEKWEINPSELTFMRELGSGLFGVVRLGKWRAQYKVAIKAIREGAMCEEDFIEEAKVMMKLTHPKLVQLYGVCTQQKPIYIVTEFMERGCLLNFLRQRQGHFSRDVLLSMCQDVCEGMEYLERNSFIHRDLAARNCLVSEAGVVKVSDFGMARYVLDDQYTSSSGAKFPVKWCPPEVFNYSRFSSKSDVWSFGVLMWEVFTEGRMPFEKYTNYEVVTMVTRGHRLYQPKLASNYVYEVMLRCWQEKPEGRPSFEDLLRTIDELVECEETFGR
UniProt P29597: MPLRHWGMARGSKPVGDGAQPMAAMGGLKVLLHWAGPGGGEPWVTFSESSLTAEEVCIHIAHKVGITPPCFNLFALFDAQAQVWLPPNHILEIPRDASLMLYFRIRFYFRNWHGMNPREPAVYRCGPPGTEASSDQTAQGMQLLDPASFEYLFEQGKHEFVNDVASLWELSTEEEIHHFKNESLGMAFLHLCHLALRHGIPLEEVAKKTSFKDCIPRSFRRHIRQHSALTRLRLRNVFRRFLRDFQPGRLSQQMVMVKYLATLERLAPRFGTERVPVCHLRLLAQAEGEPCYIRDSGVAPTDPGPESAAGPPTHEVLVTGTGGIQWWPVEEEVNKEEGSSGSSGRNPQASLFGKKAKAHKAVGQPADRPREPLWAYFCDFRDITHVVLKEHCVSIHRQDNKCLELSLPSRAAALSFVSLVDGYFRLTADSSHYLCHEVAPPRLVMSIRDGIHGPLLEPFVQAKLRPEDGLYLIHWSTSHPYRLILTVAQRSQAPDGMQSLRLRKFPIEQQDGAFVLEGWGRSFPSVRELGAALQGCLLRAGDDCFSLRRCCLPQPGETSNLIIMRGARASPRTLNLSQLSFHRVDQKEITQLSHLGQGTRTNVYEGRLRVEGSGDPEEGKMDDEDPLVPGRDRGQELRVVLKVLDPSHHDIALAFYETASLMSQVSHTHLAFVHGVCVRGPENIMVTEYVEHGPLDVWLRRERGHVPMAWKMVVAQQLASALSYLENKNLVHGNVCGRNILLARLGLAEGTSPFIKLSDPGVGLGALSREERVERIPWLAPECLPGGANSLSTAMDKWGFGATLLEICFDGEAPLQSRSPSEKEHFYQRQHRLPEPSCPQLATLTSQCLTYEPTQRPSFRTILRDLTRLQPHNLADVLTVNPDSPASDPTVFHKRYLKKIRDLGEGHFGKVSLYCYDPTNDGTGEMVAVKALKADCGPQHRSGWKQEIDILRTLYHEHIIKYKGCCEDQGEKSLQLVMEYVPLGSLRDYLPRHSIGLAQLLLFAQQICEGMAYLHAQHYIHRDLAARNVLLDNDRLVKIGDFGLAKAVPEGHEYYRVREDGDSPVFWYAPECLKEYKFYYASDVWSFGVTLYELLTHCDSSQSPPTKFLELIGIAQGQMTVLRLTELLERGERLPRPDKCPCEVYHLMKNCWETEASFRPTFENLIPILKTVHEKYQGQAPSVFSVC
UniProt Q6PHR2: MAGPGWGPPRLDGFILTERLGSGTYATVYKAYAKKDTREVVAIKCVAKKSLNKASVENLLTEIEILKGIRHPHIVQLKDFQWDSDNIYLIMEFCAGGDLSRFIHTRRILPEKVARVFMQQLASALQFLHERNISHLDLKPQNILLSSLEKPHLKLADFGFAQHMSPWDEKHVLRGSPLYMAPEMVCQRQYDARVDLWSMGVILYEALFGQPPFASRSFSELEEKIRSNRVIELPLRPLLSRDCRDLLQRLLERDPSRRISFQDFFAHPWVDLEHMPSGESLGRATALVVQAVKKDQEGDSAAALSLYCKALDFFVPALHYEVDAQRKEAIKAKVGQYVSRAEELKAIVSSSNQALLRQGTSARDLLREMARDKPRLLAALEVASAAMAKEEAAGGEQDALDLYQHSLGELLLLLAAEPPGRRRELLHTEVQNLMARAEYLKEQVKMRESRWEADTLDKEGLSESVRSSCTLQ
UniProt P07947, whole entry, looked up: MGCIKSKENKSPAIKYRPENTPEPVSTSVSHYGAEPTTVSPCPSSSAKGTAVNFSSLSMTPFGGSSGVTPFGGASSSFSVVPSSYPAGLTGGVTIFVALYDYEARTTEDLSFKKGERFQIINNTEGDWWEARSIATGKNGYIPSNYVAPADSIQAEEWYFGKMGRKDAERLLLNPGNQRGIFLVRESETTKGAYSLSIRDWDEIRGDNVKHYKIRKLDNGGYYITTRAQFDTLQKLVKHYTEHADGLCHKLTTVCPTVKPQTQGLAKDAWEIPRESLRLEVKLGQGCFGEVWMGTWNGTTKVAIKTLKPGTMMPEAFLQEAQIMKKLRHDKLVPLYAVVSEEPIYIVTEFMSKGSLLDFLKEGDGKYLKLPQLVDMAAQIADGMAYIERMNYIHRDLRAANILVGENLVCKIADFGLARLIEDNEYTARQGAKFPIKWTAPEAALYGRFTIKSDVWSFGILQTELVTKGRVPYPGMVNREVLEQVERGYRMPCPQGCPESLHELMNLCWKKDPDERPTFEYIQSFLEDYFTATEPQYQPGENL
UniProt P43403: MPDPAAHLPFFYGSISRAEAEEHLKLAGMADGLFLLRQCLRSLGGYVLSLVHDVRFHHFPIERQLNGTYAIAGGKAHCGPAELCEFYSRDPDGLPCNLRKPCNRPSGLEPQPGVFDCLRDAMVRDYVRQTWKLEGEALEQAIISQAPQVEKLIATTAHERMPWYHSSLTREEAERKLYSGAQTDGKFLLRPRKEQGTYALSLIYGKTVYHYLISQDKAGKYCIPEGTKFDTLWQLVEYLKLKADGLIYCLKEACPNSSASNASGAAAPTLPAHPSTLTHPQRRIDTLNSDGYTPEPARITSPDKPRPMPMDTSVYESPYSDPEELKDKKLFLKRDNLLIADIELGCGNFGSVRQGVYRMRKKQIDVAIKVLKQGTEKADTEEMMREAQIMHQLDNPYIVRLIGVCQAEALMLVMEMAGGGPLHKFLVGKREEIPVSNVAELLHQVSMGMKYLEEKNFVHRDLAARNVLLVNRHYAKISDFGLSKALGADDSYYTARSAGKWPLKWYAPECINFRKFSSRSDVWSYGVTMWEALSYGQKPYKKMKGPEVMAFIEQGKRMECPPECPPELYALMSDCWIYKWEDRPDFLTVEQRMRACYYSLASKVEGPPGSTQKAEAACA
UniProt P11802: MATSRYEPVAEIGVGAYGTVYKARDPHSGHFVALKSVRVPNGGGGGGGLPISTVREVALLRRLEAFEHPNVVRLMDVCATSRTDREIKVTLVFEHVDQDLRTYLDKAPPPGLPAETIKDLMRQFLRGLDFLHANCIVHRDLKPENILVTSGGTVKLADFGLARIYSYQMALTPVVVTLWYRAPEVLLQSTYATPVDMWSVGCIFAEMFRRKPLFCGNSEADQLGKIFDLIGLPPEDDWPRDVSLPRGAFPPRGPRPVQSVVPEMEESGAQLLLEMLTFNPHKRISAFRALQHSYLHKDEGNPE
UniProt P50613: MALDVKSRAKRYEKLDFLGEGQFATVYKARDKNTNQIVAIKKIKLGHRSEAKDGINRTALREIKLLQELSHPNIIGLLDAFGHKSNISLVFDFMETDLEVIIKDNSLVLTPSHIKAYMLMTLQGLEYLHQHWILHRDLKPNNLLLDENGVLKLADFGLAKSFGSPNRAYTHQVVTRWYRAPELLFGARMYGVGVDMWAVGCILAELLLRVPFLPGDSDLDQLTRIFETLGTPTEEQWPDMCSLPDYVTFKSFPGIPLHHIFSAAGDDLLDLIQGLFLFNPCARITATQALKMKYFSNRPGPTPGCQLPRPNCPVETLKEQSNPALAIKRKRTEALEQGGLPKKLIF
UniProt P50750, whole entry: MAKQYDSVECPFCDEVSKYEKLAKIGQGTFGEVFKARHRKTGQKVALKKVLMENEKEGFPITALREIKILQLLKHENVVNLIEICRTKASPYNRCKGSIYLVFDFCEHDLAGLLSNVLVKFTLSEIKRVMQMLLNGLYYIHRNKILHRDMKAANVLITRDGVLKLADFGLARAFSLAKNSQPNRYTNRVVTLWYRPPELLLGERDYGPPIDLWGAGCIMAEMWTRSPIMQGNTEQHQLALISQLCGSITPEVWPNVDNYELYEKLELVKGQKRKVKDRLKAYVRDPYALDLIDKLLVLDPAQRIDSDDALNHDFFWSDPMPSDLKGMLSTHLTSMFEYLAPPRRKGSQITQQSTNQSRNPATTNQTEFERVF

Tests used:
Details in all cases: K562, 2-18 h
[1] = biological target: STK38 (UniProt Q15208); experiment: kinase-Nluc reporter destabilization hit call (1 = scored as downregulated) (binary); higher = compound decreases kinase abundance
[2] = biological target: SYK (UniProt P43405); experiment: as above
[3] = biological target: TEC (UniProt P42680); experiment: as above
[4] = biological target: TYK2 (UniProt P29597); experiment: as above
[5] = biological target: ULK3 (UniProt Q6PHR2); experiment: as above
[6] = biological target: YES1 (UniProt P07947); experiment: as above
[7] = biological target: ZAK (UniProt Q9NYL2); experiment: as above
[8] = biological target: ZAP70 (UniProt P43403); experiment: as above
[9] = biological target: CDK4 (UniProt P11802); experiment: number of time points (of 4; 2 h point missing) at which kinase-Nluc abundance scored as decreased, DMSO-normalised (count); higher = more persistent destabilization
[10] = biological target: CDK7 (UniProt P50613); experiment: as above
[11] = biological target: CDK9 (UniProt P50750); experiment: as above

CC(C)NC[C@@H](C(=O)N1CCN(c2ncnc3c2[C@H](C)C[C@H]3O)CC1)c1ccc(Cl)cc1 [Ipatasertib]
inactive: kinase-Nluc reporter destabilization hit call ([1]; 10 µM) 0 | kinase-Nluc reporter destabilization hit call ([2]; 10 µM) 0 | kinase-Nluc reporter destabilization hit call ([3]; 10 µM) 0 | kinase-Nluc reporter destabilization hit call ([4]; 10 µM) 0 | kinase-Nluc reporter destabilization hit call ([5]; 10 µM) 0 | kinase-Nluc reporter destabilization hit call ([6]; 10 µM) 0 | kinase-Nluc reporter destabilization hit call ([7]; 10 µM) 0 | kinase-Nluc reporter destabilization hit call ([8]; 10 µM) 0
0: number of time points ([9]; 10 µM) | number of time points ([10]; 10 µM) | number of time points ([11]; 10 µM)

CCN(CC)CC(=O)Nc1c(C)cccc1C [Lidocaine (hydrochloride)]
inactive: kinase-Nluc reporter destabilization hit call ([1]; 10 µM) 0 | kinase-Nluc reporter destabilization hit call ([2]; 10 µM) 0 | kinase-Nluc reporter destabilization hit call ([3]; 10 µM) 0 | kinase-Nluc reporter destabilization hit call ([4]; 10 µM) 0 | kinase-Nluc reporter destabilization hit call ([5]; 10 µM) 0 | kinase-Nluc reporter destabilization hit call ([6]; 10 µM) 0 | kinase-Nluc reporter destabilization hit call ([7]; 10 µM) 0 | kinase-Nluc reporter destabilization hit call ([8]; 10 µM) 0
0: number of time points ([9]; 10 µM) | number of time points ([10]; 10 µM) | number of time points ([11]; 10 µM)

C[C@H](Nc1cc(-c2cnn(C)c2)cc(Nc2cnccn2)n1)c1ccc(F)cc1 [Ilginatinib hydrochloride]
0: number of time points ([9]; 2.5 µM) | number of time points ([11]; 2.5 µM)
inactive: kinase-Nluc reporter destabilization hit call ([1]; 2.5 µM) 0 | kinase-Nluc reporter destabilization hit call ([2]; 2.5 µM) 0 | kinase-Nluc reporter destabilization hit call ([3]; 2.5 µM) 0 | kinase-Nluc reporter destabilization hit call ([4]; 2.5 µM) 0 | kinase-Nluc reporter destabilization hit call ([5]; 2.5 µM) 0 | kinase-Nluc reporter destabilization hit call ([6]; 2.5 µM) 0 | kinase-Nluc reporter destabilization hit call ([7]; 2.5 µM) 0 | kinase-Nluc reporter destabilization hit call ([8]; 2.5 µM) 0
4: number of time points ([10]; 2.5 µM)

C#Cc1cccc(Nc2ncnc3cc(OCCOC)c(OCCO)cc23)c1 [Desmethyl Erlotinib]
0: number of time points ([9]; 10 µM) | number of time points ([10]; 10 µM) | number of time points ([11]; 10 µM)
inactive: kinase-Nluc reporter destabilization hit call ([1]; 10 µM) 0 | kinase-Nluc reporter destabilization hit call ([2]; 10 µM) 0 | kinase-Nluc reporter destabilization hit call ([3]; 10 µM) 0 | kinase-Nluc reporter destabilization hit call ([4]; 10 µM) 0 | kinase-Nluc reporter destabilization hit call ([5]; 10 µM) 0 | kinase-Nluc reporter destabilization hit call ([6]; 10 µM) 0 | kinase-Nluc reporter destabilization hit call ([7]; 10 µM) 0 | kinase-Nluc reporter destabilization hit call ([8]; 10 µM) 0

C[C@@H](N)[C@H]1CC[C@H](C(=O)Nc2ccncc2)CC1
inactive: kinase-Nluc reporter destabilization hit call ([1]; 10 µM) 0 | kinase-Nluc reporter destabilization hit call ([2]; 10 µM) 0 | kinase-Nluc reporter destabilization hit call ([3]; 10 µM) 0 | kinase-Nluc reporter destabilization hit call ([4]; 10 µM) 0 | kinase-Nluc reporter destabilization hit call ([5]; 10 µM) 0 | kinase-Nluc reporter destabilization hit call ([6]; 10 µM) 0 | kinase-Nluc reporter destabilization hit call ([8]; 10 µM) 0
0: number of time points ([9]; 10 µM) | number of time points ([10]; 10 µM) | number of time points ([11]; 10 µM)

CCS(=O)(=O)N1CC(CC#N)(n2cc(-c3ncnc4[nH]ccc34)cn2)C1 [Baricitinib (phosphate)]
inactive: kinase-Nluc reporter destabilization hit call ([1]; 10 µM) 0 | kinase-Nluc reporter destabilization hit call ([2]; 10 µM) 0 | kinase-Nluc reporter destabilization hit call ([3]; 10 µM) 0 | kinase-Nluc reporter destabilization hit call ([4]; 10 µM) 0 | kinase-Nluc reporter destabilization hit call ([5]; 10 µM) 0 | kinase-Nluc reporter destabilization hit call ([6]; 10 µM) 0 | kinase-Nluc reporter destabilization hit call ([7]; 10 µM) 0 | kinase-Nluc reporter destabilization hit call ([8]; 10 µM) 0
0: number of time points ([9]; 10 µM) | number of time points ([10]; 10 µM) | number of time points ([11]; 10 µM)

Arranged by number of heavy atoms (ascending): some entries from above.
CCN(CC)CC(=O)Nc1c(C)cccc1C [Lidocaine (hydrochloride)]
inactive: kinase-Nluc reporter destabilization hit call ([1]; 10 µM) 0 | kinase-Nluc reporter destabilization hit call ([2]; 10 µM) 0 | kinase-Nluc reporter destabilization hit call ([3]; 10 µM) 0 | kinase-Nluc reporter destabilization hit call ([4]; 10 µM) 0 | kinase-Nluc reporter destabilization hit call ([5]; 10 µM) 0 | kinase-Nluc reporter destabilization hit call ([6]; 10 µM) 0 | kinase-Nluc reporter destabilization hit call ([7]; 10 µM) 0 | kinase-Nluc reporter destabilization hit call ([8]; 10 µM) 0
0: number of time points ([9]; 10 µM) | number of time points ([10]; 10 µM) | number of time points ([11]; 10 µM)

CCS(=O)(=O)N1CC(CC#N)(n2cc(-c3ncnc4[nH]ccc34)cn2)C1 [Baricitinib (phosphate)]
inactive: kinase-Nluc reporter destabilization hit call ([1]; 10 µM) 0 | kinase-Nluc reporter destabilization hit call ([2]; 10 µM) 0 | kinase-Nluc reporter destabilization hit call ([3]; 10 µM) 0 | kinase-Nluc reporter destabilization hit call ([4]; 10 µM) 0 | kinase-Nluc reporter destabilization hit call ([5]; 10 µM) 0 | kinase-Nluc reporter destabilization hit call ([6]; 10 µM) 0 | kinase-Nluc reporter destabilization hit call ([7]; 10 µM) 0 | kinase-Nluc reporter destabilization hit call ([8]; 10 µM) 0
0: number of time points ([9]; 10 µM) | number of time points ([10]; 10 µM) | number of time points ([11]; 10 µM)

CC(C)NC[C@@H](C(=O)N1CCN(c2ncnc3c2[C@H](C)C[C@H]3O)CC1)c1ccc(Cl)cc1 [Ipatasertib]
inactive: kinase-Nluc reporter destabilization hit call ([1]; 10 µM) 0 | kinase-Nluc reporter destabilization hit call ([2]; 10 µM) 0 | kinase-Nluc reporter destabilization hit call ([3]; 10 µM) 0 | kinase-Nluc reporter destabilization hit call ([4]; 10 µM) 0 | kinase-Nluc reporter destabilization hit call ([5]; 10 µM) 0 | kinase-Nluc reporter destabilization hit call ([6]; 10 µM) 0 | kinase-Nluc reporter destabilization hit call ([7]; 10 µM) 0 | kinase-Nluc reporter destabilization hit call ([8]; 10 µM) 0
0: number of time points ([9]; 10 µM) | number of time points ([10]; 10 µM) | number of time points ([11]; 10 µM)

Further records:

Nc1ncnc2c1c(-c1ccc(Oc3ccccc3)cc1)nn2[C@@H]1CCCNC1
0: number of time points ([9]; 2.5 µM) | number of time points ([10]; 2.5 µM) | number of time points ([11]; 2.5 µM)
inactive: kinase-Nluc reporter destabilization hit call ([1]; 2.5 µM) 0 | kinase-Nluc reporter destabilization hit call ([2]; 2.5 µM) 0 | kinase-Nluc reporter destabilization hit call ([3]; 2.5 µM) 0 | kinase-Nluc reporter destabilization hit call ([4]; 2.5 µM) 0 | kinase-Nluc reporter destabilization hit call ([5]; 2.5 µM) 0 | kinase-Nluc reporter destabilization hit call ([6]; 2.5 µM) 0 | kinase-Nluc reporter destabilization hit call ([7]; 2.5 µM) 0 | kinase-Nluc reporter destabilization hit call ([8]; 2.5 µM) 0

CCc1nc(C(N)=O)c(Nc2ccc(N3CCC(N4CCN(C)CC4)CC3)c(OC)c2)nc1NC1CCOCC1 [Gilteritinib hemifumarate]
0: number of time points ([9]; 2 µM) | number of time points ([10]; 2 µM) | number of time points ([11]; 2 µM)
inactive: kinase-Nluc reporter destabilization hit call ([1]; 2 µM) 0 | kinase-Nluc reporter destabilization hit call ([2]; 2 µM) 0 | kinase-Nluc reporter destabilization hit call ([3]; 2 µM) 0 | kinase-Nluc reporter destabilization hit call ([4]; 2 µM) 0 | kinase-Nluc reporter destabilization hit call ([5]; 2 µM) 0 | kinase-Nluc reporter destabilization hit call ([6]; 2 µM) 0 | kinase-Nluc reporter destabilization hit call ([7]; 2 µM) 0 | kinase-Nluc reporter destabilization hit call ([8]; 2 µM) 0

COc1ccc(S(=O)(=O)Nc2ccccc2CN(C)C/C=C/c2ccc(Cl)cc2)cc1 [KN-92 (phosphate)]
inactive: kinase-Nluc reporter destabilization hit call ([1]; 2.5 µM) 0 | kinase-Nluc reporter destabilization hit call ([2]; 2.5 µM) 0 | kinase-Nluc reporter destabilization hit call ([3]; 2.5 µM) 0 | kinase-Nluc reporter destabilization hit call ([4]; 2.5 µM) 0 | kinase-Nluc reporter destabilization hit call ([5]; 2.5 µM) 0 | kinase-Nluc reporter destabilization hit call ([6]; 2.5 µM) 0 | kinase-Nluc reporter destabilization hit call ([7]; 2.5 µM) 0 | kinase-Nluc reporter destabilization hit call ([8]; 2.5 µM) 0
0: number of time points ([9]; 2.5 µM) | number of time points ([10]; 2.5 µM) | number of time points ([11]; 2.5 µM)

C/C=C1\C(=O)C[C@H]2[C@@H]3CCC4=CC(=O)CC[C@]4(C)[C@H]3CC[C@]12C [(Z)-Guggulsterone]
inactive: kinase-Nluc reporter destabilization hit call ([1]; 10 µM) 0 | kinase-Nluc reporter destabilization hit call ([2]; 10 µM) 0 | kinase-Nluc reporter destabilization hit call ([3]; 10 µM) 0 | kinase-Nluc reporter destabilization hit call ([4]; 10 µM) 0 | kinase-Nluc reporter destabilization hit call ([5]; 10 µM) 0 | kinase-Nluc reporter destabilization hit call ([6]; 10 µM) 0 | kinase-Nluc reporter destabilization hit call ([7]; 10 µM) 0 | kinase-Nluc reporter destabilization hit call ([8]; 10 µM) 0
0: number of time points ([9]; 10 µM) | number of time points ([10]; 10 µM) | number of time points ([11]; 10 µM)

Cc1cccc(/C=N/Nc2cc(N3CCOCC3)nc(OCCc3ccccn3)n2)c1 [Apilimod (mesylate)]
inactive: kinase-Nluc reporter destabilization hit call ([1]; 10 µM) 0 | kinase-Nluc reporter destabilization hit call ([2]; 10 µM) 0 | kinase-Nluc reporter destabilization hit call ([3]; 10 µM) 0 | kinase-Nluc reporter destabilization hit call ([4]; 10 µM) 0 | kinase-Nluc reporter destabilization hit call ([5]; 10 µM) 0 | kinase-Nluc reporter destabilization hit call ([6]; 10 µM) 0 | kinase-Nluc reporter destabilization hit call ([8]; 10 µM) 0
1: number of time points ([10]; 10 µM)
0: number of time points ([9]; 10 µM) | number of time points ([11]; 10 µM)

CCCCCCCCc1ccc(CCC(N)(CO)CO)cc1 [Fingolimod]
0: number of time points ([9]; 2.5 µM) | number of time points ([10]; 2.5 µM) | number of time points ([11]; 2.5 µM)
inactive: kinase-Nluc reporter destabilization hit call ([1]; 2.5 µM) 0 | kinase-Nluc reporter destabilization hit call ([2]; 2.5 µM) 0 | kinase-Nluc reporter destabilization hit call ([3]; 2.5 µM) 0 | kinase-Nluc reporter destabilization hit call ([4]; 2.5 µM) 0 | kinase-Nluc reporter destabilization hit call ([5]; 2.5 µM) 0 | kinase-Nluc reporter destabilization hit call ([6]; 2.5 µM) 0 | kinase-Nluc reporter destabilization hit call ([7]; 2.5 µM) 0 | kinase-Nluc reporter destabilization hit call ([8]; 2.5 µM) 0

Cc1ccc(NC(=O)c2ccc(CN3CCN(C)CC3)cc2)cc1Nc1nc(-c2cccnc2)cs1 [Masitinib]
3: number of time points ([10]; 2.5 µM)
0: number of time points ([9]; 2.5 µM) | number of time points ([11]; 2.5 µM)
inactive: kinase-Nluc reporter destabilization hit call ([1]; 2.5 µM) 0 | kinase-Nluc reporter destabilization hit call ([2]; 2.5 µM) 0 | kinase-Nluc reporter destabilization hit call ([3]; 2.5 µM) 0 | kinase-Nluc reporter destabilization hit call ([4]; 2.5 µM) 0 | kinase-Nluc reporter destabilization hit call ([5]; 2.5 µM) 0 | kinase-Nluc reporter destabilization hit call ([6]; 2.5 µM) 0 | kinase-Nluc reporter destabilization hit call ([7]; 2.5 µM) 0 | kinase-Nluc reporter destabilization hit call ([8]; 2.5 µM) 0
